Test results reported in PubChem BioAssay AID602254 (Broad Institute, 2012).
Hit rate of the full screen: of about 1,000 compounds, fewer than 10 were called active.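 Rule for the calls: active = fitted half-maximal concentration no higher than twice the top valid tested dose, with signal falling; inconclusive = flat curve with 30 to 70% inhibition, or poor fit; inactive = the rest.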 The list shows a part of the results. Results with a measured potency or affinity are listed apart.

Target: Golgi-associated PDZ and coiled-coil motif-containing protein (Homo sapiens) (UniProt Q9HD26)
Assay: CAL PDZ domain peptide-binding inhibitors, dose response, biochemical, fluorescence polarization, untagged CAL PDZ, cherry-pick, set 2 (AID 602254);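 note: 0% = DMSO neutral control and -100% = unlabeled peptide PRC23 positive control; more negative means stronger blocking of peptide binding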
Details: Purified CAL PDZ, TMR peptide fluorescence polarization; at 60 µM (top of the series)

Activity change, negative = inhibition, inactive:
COc1ccc(NC(=O)NC2(C)CCS(=O)(=O)C2)cc1 (stereo unspecified) 1.26%
CCOC(=O)c1c(NC(=O)C2CCCCC2)sc2c1CCN(CC)C2 -0.655%
CSc1ccccc1OCc1cc(C(=O)N2CCN(c3ccccc3)CC2C)no1 (stereo unspecified) -4.89%
CC(=O)C1CCCN(C(=O)c2ccc3oc(CCc4ccccc4)nc3c2)C1 (stereo unspecified) 3.86%
O=C1NCCCCC1NS(=O)(=O)c1ccc(F)c(F)c1 (stereo unspecified) -3.46%
COc1ccc(CCN(C)C(=O)c2c(C)nn(CC(C)C)c2Cl)cc1OC 1.3%
COc1ccc(CC(=O)NCC2CCCN(Cc3ccc(OC(F)(F)F)cc3)C2)cc1 (stereo unspecified) 2.37%
CC(=O)N1c2ccc(S(=O)(=O)N(C)CC(=O)N3CCCC3)cc2CC1C (stereo unspecified) 3.19%
Cc1ccc(/C=N/N(C)S(=O)(=O)c2ccc(C)cc2)cc1 -0.427%
CN(Cc1c(F)cccc1Cl)C(=O)C1CC(=O)N(CCc2ccccc2)C1 (stereo unspecified) -0.925%
O=C(NCCc1ccccc1C(F)(F)F)C1CCC(=O)N(CCCN2CCCC2=O)C1 (stereo unspecified) 0.093%
COc1ccccc1C(=O)NC(CCSC)C(=O)NC1CC1 (stereo unspecified) 4.47%
O=C(COC(=O)C1CCC(N2C(=O)C3C4CCC(C4)C3C2=O)CC1)c1ccc(F)cc1 (stereo unspecified) 0.812%
CCCC(=O)Nc1cc(S(=O)(=O)N2CCCCC2)ccc1N1CCOCC1 -1.8%
COC(=O)CNc1cccc(C(F)(F)F)c1 -1.68%
COc1ccccc1CC(=O)Nc1cccc(C)n1 0.293%
CCSc1nsc(NC(=O)Nc2cccc(F)c2)n1 9.07%
COc1cc(OC)cc(C(=O)NNC(=S)NC2CC2)c1 -1.07%
CCN1CCCc2cc(CN(CCN3CCOCC3)C(=S)Nc3cccc(C)c3)ccc21 1.91%
Cc1cc(NC(=O)CN(C)S(=O)(=O)c2cccc(Cl)c2)no1 -2.42%
COc1ccc2oc(=O)c(C(=O)Nc3ccccc3O)cc2c1 -3.2%
CCn1cc(CN2CCCC(C(=O)Nc3cccc(-c4cc5ccccc5[nH]4)c3)C2)cn1 (stereo unspecified) -1.19%
O=C(NNC(=O)C1CCC1)c1ccc(Br)cc1 -0.869%
COC(=O)c1c(C)nc2nonc2c1N 0.881%
COc1ccccc1NC(=O)Nc1ccnn1Cc1cccs1 -4.14%
CCCCc1ncc(CN2CCC(n3nccc3NC(=O)c3ccccc3OC)CC2)[nH]1 -1.59%
Oc1ccc(/C=C/c2ccc3ccccc3n2)cc1 -4.31%
COc1ccc(NC(=O)NC2(C(=O)N3CCN(C)CC3)CCCCC2)cc1 1.07%
Cc1ccc(N2CCN(CCCCN3C(=O)C4CCCN4C3=O)CC2)cc1 (stereo unspecified) -1.07%
CCn1nnc(NC(=O)Cc2ccc(Cl)cc2)n1 -0.719%
COc1cccc(OC)c1C(=O)Nc1cccc(C(C)=O)c1 -0.101%
Fc1cccc(Cc2noc(CN3CCSCC3)n2)c1 2.57%
COCn1c(-c2ccc(OC)cc2)nc2ccccc21 1.04%
O=C(c1ccc2nc[nH]c2c1)N1CCc2ccccc2C1 1.11%
O=C(NCc1ccc(Cl)cc1)c1ccc(CNc2c(N3CCOCC3)c(=O)c2=O)cc1 -0.987%
O=C(NCCc1ccccc1)c1ccc(NC(=O)C2CC2)cc1 -0.339%
CCSc1ccccc1C(=O)NCCc1ccccc1 -8.58%
O=S(=O)(c1ccc2c(c1)CCCN2)N1CCCC1 -1.73%
CCN(CC)S(=O)(=O)c1ccc(NC(=S)NC(=O)C2CCC2)cc1 -0.169%
CC(C)(CN1CCCC1)NC(=O)C1CCC(=O)N(CCCN2CCOCC2)C1 (stereo unspecified) -2.01%
COc1cccc(/C=N/NC(=O)c2c(C)nc3ccc(Cl)cn23)c1O 0.561%
CCOCCc1nnc(NC(=O)C2CC(=O)N(CCc3ccc(F)cc3)C2)s1 (stereo unspecified) 3.61%
Cn1cccc1/C=C1\SC(=S)N(NC(=O)c2ccc(Cl)cc2)C1=O -0.393%
Cc1cccc(N2CCN(CC3CCCCC3)CC2)c1C -2%
CSc1cccc(NC(=O)CNC(=O)c2ccc3c(c2)OCO3)c1 -11.1%
Cc1ccc(CNC(=O)C(c2ccccc2)c2ccccc2)cc1 -2.21%
O=C(NCCN1CCN(C(=O)c2ccccc2Cl)CC1)C(=O)NCc1ccccc1 1.78%
CNS(=O)(=O)c1cccc(C(=O)OCC(=O)c2ccc3c(c2)OCCO3)c1 1.8%
Cc1ccc(NC(=O)CN(C)C(=O)COc2cccc3ccc(C)nc23)cc1 -0.235%
COc1ccc(N(CC(=O)N2CCCCCC2)S(=O)(=O)c2ccc(OC)c(OC)c2)cc1 -1.11%
Cc1ccc(N2CCN(S(=O)(=O)c3ccc(-n4cnnn4)cc3)CC2)c(C)c1 -0.268%
C=CCNc1cnn(-c2ccc(C)cc2)c(=O)c1Cl 1.23%
CCOc1ccc(NC(=O)CN2CCN(CC(=O)Nc3ccccc3OC)CC2)cc1 -1.63%
COc1ccc(CCC(=O)NNC(=O)c2ccccn2)cc1OC -1.4%
O=C(Nc1ccccc1C(=O)O)c1cccc(N2C(=O)c3ccccc3C2=O)c1 3.93%
NC(=O)COC(=O)c1ccc(NS(=O)(=O)c2ccc3c(c2)OCCO3)cc1 -5.43%
Nc1nonc1C(=O)NCCNCc1ccccc1OCc1ccccc1F 2.24%
CC(=O)c1sc(NC(=O)CCCc2nc3ccccc3c(=O)[nH]2)nc1-c1ccccc1 4.64%
Oc1ccccc1-c1nnc(SCCN2CCOCC2)n1Cc1ccccc1 3.38%
Cc1ccc(S(=O)(=O)NC(CC(C)C)C(=O)N2CC(C)OC(C)C2)cc1 (stereo unspecified) 0.893%
CC1CN(S(=O)(=O)c2ccc(CN3C(=O)c4cccnc4C3=O)s2)c2ccccc2O1 (stereo unspecified) -1.12%
O=C(NCC1CCCN(Cc2cccc(F)c2)C1)c1cccc2ccccc12 (stereo unspecified) -1.19%
Cc1cc(C(=O)COc2ccccc2Cl)c(C)n1-c1ccc2c(c1)OCO2 2.31%
Cc1ccc(C(=O)Nc2cccc(C(=O)N3CCOCC3)c2)cc1Cl 4.43%
O=C(O)CCCC(=O)Nc1ccc(N2CCCC2)cc1 0.225%
CCCCNC(=O)Nc1ccccc1CC 7.33%
CN1C(C)(C)CC(=NOC(=O)c2ccccc2)CC1(C)C -1.53%
O=C(CCCN1C(=O)c2ccccc2C1=O)NCCCn1ccnc1 -2.33%
O=C(O)c1ccc(/C=N/NC(=O)c2cc3ccccc3cc2O)cc1 18.7%
COc1ccccc1NC(=O)CN1CCCCCC1 4.63%
CC(=O)Nc1sc(NC(=O)c2ccc(C)cc2)nc1-c1cccs1 -1.3%
Cc1ccc(C(=O)N[C@H](C(=O)OCc2nnc(-c3ccccc3)o2)C(C)C)cc1 -6.77%
COc1cc(/C=N/Nc2nc3ccccc3s2)ccc1OC(=O)c1ccccc1F 0.818%
Cc1cc(C(F)(F)F)n2ncc(-c3ccccc3)c2n1 -0.134%
NC(=O)NC(CC(=O)NNC(=O)c1ccccn1)c1ccccc1Cl (stereo unspecified) 1.01%
CCOc1ccc(NS(=O)(=O)c2ccc(NC(=O)c3ccccc3C(=O)O)cc2)cc1 0.784%
COc1ccc(C)cc1NC(=O)Cn1c(=O)oc2ccccc21 -1.95%
O=C(Cc1c(C(=O)O)[nH]c2ccccc12)NCCN1CCN(c2cccc(Cl)c2)CC1 -1.9%
COc1ccc(OCC(=O)Nc2ccc3c(c2)nc(CN2CCCC2)n3C)cc1 2.55%
COc1ccc(/C=N/NC(=O)c2ccc(CN3C(=O)c4cccc5cccc3c45)cc2)cc1O 2.74%
CNC(=O)c1cn(-c2ccc(Cl)cc2)c(=O)c2ccccc12 1.27%
CC(C)[C@H](NC(=O)c1ccc(Br)cc1)C(=O)NC1CCCCC1 -4.06%
COc1ccc(CN2CCNC(=O)C2CC(=O)NC2CCCCCCC2)cc1OC (stereo unspecified) 1.79%
COc1ccc(NC(=O)Nc2c[nH]c(=O)[nH]c2=O)cc1 -3.5%
NS(=O)(=O)c1ccc(CCNC(=O)COC(=O)C2CCC2)cc1 1.83%
OC(CNCCc1ccc(Cl)cc1Cl)COc1ccccc1 (stereo unspecified) 0.253%
C=CCNC(=S)NCc1ccccc1OC -1.48%
CSc1ccccc1C(=O)Nc1ccc2c(c1)CCC2 1.61%
CN(C)CCOC(=O)c1sc2ccccc2c1Cl 1.67%
O=C(NCc1ccccn1)c1cn(Cc2ccccc2)nn1 -3.03%
CN1CCN(CC(=O)NN2CC(=O)N(c3ccc(F)cc3)CC2=O)CC1 -1.12%
OCC1(Cc2ccc(Cl)cc2)CCN(Cc2ccc(F)c(F)c2)CC1 1.5%
O=C(c1ccc2nccnc2c1)N1CCCC(Nc2ccc(F)c(F)c2)C1 (stereo unspecified) -1.05%
O=C(c1ccc2c(c1)OCO2)C1CCCN(Cc2cc(F)ccc2-n2cccn2)C1 (stereo unspecified) -4.9%
COC(=O)c1ccc(OCc2nn[nH]n2)cc1 1.45%
Fc1ccc(Cn2cc(C(=S)N3CCOCC3)c3ccccc32)cc1 0.943%

A draw from above in order of length of the SMILES, ascending:
Activity change, negative = inhibition, inactive:
Oc1ccc(/C=C/c2ccc3ccccc3n2)cc1 -4.31%
CSc1ccccc1C(=O)Nc1ccc2c(c1)CCC2 1.61%
CCN(CC)S(=O)(=O)c1ccc(NC(=S)NC(=O)C2CCC2)cc1 -0.169%
CC(C)(CN1CCCC1)NC(=O)C1CCC(=O)N(CCCN2CCOCC2)C1 (stereo unspecified) -2.01%
CCN1CCCc2cc(CN(CCN3CCOCC3)C(=S)Nc3cccc(C)c3)ccc21 1.91%
Cc1ccc(N2CCN(S(=O)(=O)c3ccc(-n4cnnn4)cc3)CC2)c(C)c1 -0.268%
O=C(COC(=O)C1CCC(N2C(=O)C3C4CCC(C4)C3C2=O)CC1)c1ccc(F)cc1 (stereo unspecified) 0.812%
